These are yes or no findings as the source states them, for the method shown. In cells and extracts the contact can be indirect. Binding can be weak; no strength is given.

By UniProt entry, the sequences of proteins in these tests, tags left out. Where a name states a change or a piece, a line headed by the entry shows the natural chain unless it says otherwise.
UniProt Q92556: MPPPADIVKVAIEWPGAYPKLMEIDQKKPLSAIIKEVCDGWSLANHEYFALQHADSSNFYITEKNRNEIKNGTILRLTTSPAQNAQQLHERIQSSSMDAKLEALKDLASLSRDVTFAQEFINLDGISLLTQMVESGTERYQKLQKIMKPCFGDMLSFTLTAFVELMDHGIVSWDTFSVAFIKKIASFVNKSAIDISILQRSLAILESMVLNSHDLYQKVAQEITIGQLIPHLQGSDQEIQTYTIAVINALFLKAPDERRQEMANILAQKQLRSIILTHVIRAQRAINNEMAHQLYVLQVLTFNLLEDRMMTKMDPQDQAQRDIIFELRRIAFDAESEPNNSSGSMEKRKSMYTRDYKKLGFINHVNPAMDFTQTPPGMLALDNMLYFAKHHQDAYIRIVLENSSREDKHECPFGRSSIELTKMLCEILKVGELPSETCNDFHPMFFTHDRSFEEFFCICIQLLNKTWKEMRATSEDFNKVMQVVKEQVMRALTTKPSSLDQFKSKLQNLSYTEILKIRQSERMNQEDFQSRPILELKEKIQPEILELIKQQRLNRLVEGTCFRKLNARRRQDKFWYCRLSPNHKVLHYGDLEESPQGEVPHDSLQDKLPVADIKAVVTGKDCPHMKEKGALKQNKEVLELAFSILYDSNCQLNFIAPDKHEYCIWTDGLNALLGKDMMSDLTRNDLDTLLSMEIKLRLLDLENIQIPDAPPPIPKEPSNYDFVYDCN

For one assay, the target named is T1, SH3 domain of Ephexin4 (UniProt Q5VV41).
T1 sequence: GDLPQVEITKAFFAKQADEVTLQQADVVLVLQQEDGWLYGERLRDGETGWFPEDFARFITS
The assay can be described thus: pull-down; 293T cells co-transfected; lysates precipitated with glutathione–Sepharose beads, 2 h at 4 °C; co-precipitated proteins detected with anti-GFP (Fig. 3a,d) or anti-FLAG (Fig. 3b,c, 4a).

In assay [1] the target is T2, Ephexin4 (full-length, wild type) (UniProt Q5VV41).
T2 sequence: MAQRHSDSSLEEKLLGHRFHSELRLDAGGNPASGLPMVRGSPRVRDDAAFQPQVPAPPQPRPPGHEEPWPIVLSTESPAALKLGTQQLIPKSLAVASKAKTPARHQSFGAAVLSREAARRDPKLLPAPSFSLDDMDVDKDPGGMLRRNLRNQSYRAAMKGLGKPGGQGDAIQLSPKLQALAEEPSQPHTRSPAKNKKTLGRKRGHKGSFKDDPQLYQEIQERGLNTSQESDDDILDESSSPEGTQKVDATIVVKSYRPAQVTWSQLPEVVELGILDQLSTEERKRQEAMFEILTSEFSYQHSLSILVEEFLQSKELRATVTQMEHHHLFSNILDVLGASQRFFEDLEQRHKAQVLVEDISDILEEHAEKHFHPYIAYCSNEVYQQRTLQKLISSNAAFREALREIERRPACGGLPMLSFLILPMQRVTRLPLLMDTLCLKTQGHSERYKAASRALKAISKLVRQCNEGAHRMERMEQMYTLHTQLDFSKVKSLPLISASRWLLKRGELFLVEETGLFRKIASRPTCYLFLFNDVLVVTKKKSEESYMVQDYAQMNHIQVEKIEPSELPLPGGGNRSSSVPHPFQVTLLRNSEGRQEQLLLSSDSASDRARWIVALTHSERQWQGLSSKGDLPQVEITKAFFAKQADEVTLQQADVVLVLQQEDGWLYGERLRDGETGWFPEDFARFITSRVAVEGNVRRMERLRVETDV
The assay can be described thus: co-IP; 293T cells co-transfected; anti-FLAG immunoprecipitation of lysates (1% Triton X-100, 150 mM NaCl, pH 7.6), 2 h at 4 °C; anti-GFP immunoblot (Fig. 2a-c).

The target of assay [2] is T3, N20 region of Ephexin4 (amino acids 224–378) (UniProt Q5VV41).
T3 sequence: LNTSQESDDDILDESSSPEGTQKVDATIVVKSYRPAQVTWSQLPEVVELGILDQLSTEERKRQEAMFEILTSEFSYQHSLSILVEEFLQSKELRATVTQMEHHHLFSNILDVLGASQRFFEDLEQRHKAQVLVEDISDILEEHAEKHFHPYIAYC
The assay can be described thus: pull-down; 293T cells co-transfected; lysates precipitated with glutathione–Sepharose beads, 2 h at 4 °C; co-precipitated proteins detected with anti-GFP (Fig. 3a,d) or anti-FLAG (Fig. 3b,c, 4a).

Take “C-terminus of Elmo1 (from UniProt Q92556) (domain or fragment)”: the binding result with SH3 domain of Ephexin4 was “binds”.

Regarding “Ephexin4^ΔSH3 (Ephexin4 mutant lacking the SH3 domain) (domain or fragment)”, the binding entry in assay [1] was “binds weakly”.

Regarding “N-terminus of Elmo1 (from UniProt Q92556) (domain or fragment)”, in assay [2], the binding entry was “binds”.

Source of the values: paper PMC5493634, “Intermolecular steric inhibition of Ephexin4 is relieved by Elmo1” (Scientific Reports, 2017).
